Assay [1] concerns caveolin/eNOS interaction. The note with it: CMECs.
A further assay relates to CMECs. The note with it: serum-stimulated.
The subject of a further assay is hsp90/eNOS interaction. Description: hsp90/eNOS co-immunoprecipitation, CMECs. To be noted: CMECs exposed for 3 hours. It is filed as cell-based, Mouse.
A further assay concerns AECs. The note with it: statin-exposed aortic ECs, serum-stimulated.

Turning to `CC(C)c1c(C(=O)Nc2ccccc2)c(-c2ccccc2)c(-c2ccc(F)cc2)n1CC[C@@H](O)C[C@@H](O)CC(=O)O` [atorvastatin], in assay [1], the “cell eNOS pool bound to caveolin (reverse IP)” value is listed as “not altered”. Moreover, the FC efflux result in the assay with CMECs was “failed, indeed, to modulate”. The “increase of hsp90/eNOS interaction” value with hsp90/eNOS interaction is on record as roughly 5 fold. In addition, the cholesterol efflux entry with AECs is given as “nearly complete blockade”.

(Values after patent US20090226427A1, “NOVEL PHARMACEUTICAL COMPOSITIONS FOR MODULATING ANGIOGENESIS” (priority 1999, published 2009).)
